Assay results as given in patent publication US20170115265A1, “Use of Visibly Detectable Compounds as Performance Reference Compounds in Passive Sampling Devices” (Geosyntec Consultants, Inc., priority 2015, published 2017).

Assay: Example 1: elimination of PRCs from PE passive sampling devices deployed 14 days in marine aquatic sediment
Type: physicochemical
Excerpt: Twenty PSDs were created (each consisting of a 4×10 cm piece of PE). Ten of the PSDs were spiked with PCB-36 (which is not visibly detectable) and ten of the PSDs were spiked with Sudan III, a visibly detectable PRC within the scope of the present disclosure. The 20 spiked PSDs then were inserted in the top 10 cm of aquatic sediment at a marine (ocean) site by scuba divers at ten locations within a half-acre area. At each of the 10 locations, one PSD containing PCB-36 and one PSD containing Sudan III were deployed.
After 14 days, the PSDs were collected by divers, brought to the surface, placed in a shipping container, and sent to a laboratory, where they were wiped with moistened tissues, placed in small vials, and extracted with solvent. PSDs submitted for PCB analysis were extracted in a 1:1 aliquot (e.g., 50 mL) of a solvent of methylene chloride and hexane, and PSDs submitted for Sudan III analysis were extracted in 10 mL hexane solvent. Three PSDs containing Sudan III that were not deployed (i.e., were not placed in the sediment, but retained in storage) were also extracted in the same manner, and three PSDs containing PCB-36 that were not deployed (i.e., were not placed in the sediment, but retained in storage) were also extracted in the same manner. These 6 samples are referred to as “trip blanks”. The 13 solvents (from extraction of 10 exposed PSDs and 3 trip blanks PSDs) into which the PCB-36-spiked PSDs were extracted were then measured for PCBs using high-resolution gas chromatography/high-resolution mass spectrometry with an approximate 30- to 60-minute analysis time per sample. Via this analysis, the concentrations of PCB-36 in the 13 PCB-36-spiked PSDs were determined. The 13 solvents (from extraction of 10 exposed PSDs and 3 trip blanks PSDs) into which the Sudan III-spiked PSDs were extracted were measured for Sudan III on a benchtop UV/Vis spectrometer set to a wavelength of 507 nm, with an analysis time of approximately 1-2 minutes per sample. Via this analysis, the concentration of Sudan III in the 13 Sudan III-spiked PSDs was determined.
The “sampling rate” of the PSD is expressed numerically as a term referred to as the elimination rate (ke). ke values can be calculated using the following equation (Lohmann, supra): […]
Because of this, the kinetics of depuration and absorption for these two chemicals can be assumed to be approximately equal. […] The general equation to estimate the steady state concentration of an analyte using a ke value and a measured pre-steady state concentration of an analyte is (Lohmann, supra): […]

In the case of `Clc1cccc(-c2ccc(Cl)c(Cl)c2)c1` [PCB-35], the “time t concentration of PCB-35 absorbed from sediment into PSD” value (Station 6, 14 days) is reported as 0.14 ng PCB-35/g PE.

In the case of `Clc1cccc(-c2cc(Cl)cc(Cl)c2)c1` [PCB-36], the “time t concentration of PCB-36 in PSD” value (Station 6, 14 days) is reported as 110 ng PCB-36/g PE.

With `Oc1ccc2ccccc2c1N=Nc1ccc(N=Nc2ccccc2)cc1` [Sudan III] the “agreement of average Log10 ke values for Sudan III and PCB-36” value (10 stations, not statistically different (P=0.08)) was at most 14% and the “time t concentration of Sudan III in PSD” value (Station 6, 14 days) was 21 mg Sudan III/g PE.
